Measured values: patent US20260284208A1, “SYSTEM” (Oxford University Innovation Limited, priority 2023, published 2026)
The source gives many values for each of these; only a part stands here.

Test system: library of 8,380 IKZF3 degrons (ZF-eGFP/mCherry reporter) in Jurkat cells
Assay: Pooled library screen (FACS, NGS, limma voom LogFC of positive vs negative read counts)
Type: cell-based, human
Experimental: A library of 8,380 IKZF3 degrons was cloned into pLVX-Sprout to create the eGFP/mCherry protein degradation reporter plasmid pool. A lentivirus pool was then generated using the Lenti-X lentiviral vector production method.
Jurkat cells were transduced at a multiplicity of infection of <0.3 with the lentivirus vector library in order to maximise the number of cells with a single integration. Transductions were carried out in 6 well TC-treated cell culture dishes (Falcon) with 3×10^6 cells per well. Cells were incubated for 2 days at 37° C. and 5% CO2 before the supernatant was removed and replaced with fresh media. 6 days post-transduction, mCherry+ cells were isolated via FACS using the FACS Aria Fusion (BD) in a buffer containing PBS (Gibco), 2 mM EDTA (Gibco), 25 mM HEPES (Sigma) and 1% BSA (Sigma). 8 days later, cells were treated with DMSO or a thalidomide analog for 18 hours at 37° C. and 5% CO2. mCherry+GFPlow and NOT(mCherry+GFPlow) cells were sorted by FACS using the FACS Aria Fusion (BD). DMSO treated cells were used to set the mCherry+GFPlow gate and dead cells were excluded from sorting by staining cells with 1 μg/mL DAPI (ThermoFisher). gDNA was isolated using the Maxwell RSC 48 (Promega). gDNA from cells that were unsorted and untreated were also isolated to determine the library representation on the day of compound treatment. Throughout the screen >600× coverage of the library was maintained. 3 biological replicates were carried out with a new transduction taking place each time.
A two-step PCR was used where the first PCR (PCR1) amplified the integrated degron sequence from gDNA and the second PCR (PCR2) added Illumina adaptors and barcodes to permit multiplexing. See Supp F for PCR1 and PCR2 primers. Q5 Hot Start High-Fidelity 2× Master Mix (New England Biolabs) was used for both PCRs. Sufficient gDNA was amplified in PCR1 in order to maintain >600× coverage and amplicons were purified using solid phase reversible immobilization (SPRI) beads (Beckman Coulter). Purified PCR1 products were analysed on the Tapestation 4200 (Agilent) to confirm purity prior to proceeding to PCR2. Sufficient PCR1 product was amplified in PCR2 in order to maintain >600× coverage and amplicons were run on a 2% agarose TAE gel. Target bands were excised and purified using the NucleoSpin Gel and PCR Clean-up Kit (Machery Nagel). Amplicons were analysed on the Tapestation 4200 and quantified using Qubit dsDNA HS kit (ThermoFisher). PCR products were pooled and sequenced as paired-reads on the NovaSeq (Illumina) using a SP2 200 cycles kit (Illumina).
Count distributions, percentage of read mapping, library coverage and replicate correlation per sample were assessed for QC purposes.
To carry out the library screen, we used the same plasmid construct as in our earlier flow cytometry assays, but pooling all 8,380 mutants together into one Jurkat population, ensuring a copy number of one plasmid per cell (FIG. 4B). […] These GFP-negative cells were then separated from the remaining GFP-positive population using fluorescence activated cell sorting (FACS). These two populations were then sequenced and the relative abundance of every mutant in both populations compared to provide a log FC value for each mutant sequence. This value indicated how frequently a sequence is observed in the GFP-negative population relative to the GFP-positive population, and therefore how effective a degron it is for that particular IMID compound.

O=C1CCC(N2C(=O)c3ccc(N4CCOCC4)cc3C2=O)C(=O)N1 (stereo not shown) [B03]
B03_logFC (Degron-ID 7691, SEQ ID NO 4305, 46L_47F_49E_50I_52G_53F_54N_55C_67L_): 2.211 | B03_logFC (Degron-ID 7720, SEQ ID NO 4351, 46L_47H_49E_50I_52G_53F_54A_55C_67L_): 2.119 | B03_logFC (Degron-ID 7733, SEQ ID NO 4266, 46L_47H_49E_50I_52G_53F_54Q_55C_67L_): 2.266 | B03_logFC (Degron-ID 7735, SEQ ID NO 3724, 46L_47H_49E_50I_52G_53F_54S_55C_67L_): 3.16 | B03_logFC (Degron-ID 7736, SEQ ID NO 3845, 46L_47H_49E_50I_52G_53F_54T_55C_67L): 2.93 | B03_logFC (Degron-ID 7740, SEQ ID NO 4291, 46L_47I_49E_50I_52G_53F_54A_55C_67L_): 2.237 | B03_logFC (Degron-ID 7753, SEQ ID NO 4248, 46L_47I_49E_50I_52G_53F_54Q_55C_67L_): 2.3 | B03_logFC (Degron-ID 7754, SEQ ID NO 4268, 46L_47I_49E_50I_52G_53F_54R_55C_67L_): 2.264 | B03_logFC (Degron-ID 7755, SEQ ID NO 3793, 46L_47I_49E_50I_52G_53F_54S_55C_67L_): 3.024 | B03_logFC (Degron-ID 7756, SEQ ID NO 4289, 46L_47I_49E_50I_52G_53F_54T_55C_67L_): 2.238 | B03_logFC (Degron-ID 7815, SEQ ID NO 4345, 46L_47M_49E_50I_52G_53F_54S_55C_67L_): 2.135 | B03_logFC (Degron-ID 7880, SEQ ID NO 4393, 46L_47S_49E_50I_52G_53F_54A_55C_67L_): 2.047 | B03_logFC (Degron-ID 7896, SEQ ID NO 3891, 46L_47S_49E_50I_52G_53F_54T_55C_67L): 2.866 | B03_logFC (Degron-ID 7914, SEQ ID NO 4360, 46L_47T_49E_50I_52G_53F_54R_55C_67L_): 2.102 | B03_logFC (Degron-ID 7915, SEQ ID NO 3700, 46L_47T_49E_50I_52G_53F_54S_55C_67L_): 3.216 | B03_logFC (Degron-ID 7916, SEQ ID NO 3874, 46L_47T_49E_50I_52G_53F_54T_55C_67L): 2.891 | B03_logFC (Degron-ID 7935, SEQ ID NO 3758, 46L_47V_49E_50I_52G_53F_54S_55C_67L_): 3.113 | B03_logFC (Degron-ID 7940, SEQ ID NO 3694, 46L_47W_49E_50I_52G_53F_54A_55C_67L_): 3.236 | B03_logFC (Degron-ID 7941, SEQ ID NO 3664, 46L_47W_49E_50I_52G_53F_54C_55C_67L_): 3.308 | B03_logFC (Degron-ID 7948, SEQ ID NO 3688, 46L_47W_49E_50I_52G_53F_54K_55C_67L_): 3.248 | B03_logFC (Degron-ID 7950, SEQ ID NO 3706, 46L_47W_49E_50I_52G_53F_54M_55C_67L_): 3.202 | B03_logFC (Degron-ID 7957, SEQ ID NO 3719, 46L_47W_49E_50I_52G_53F_54V_55C_67L_): 3.17 | B03_logFC (Degron-ID 7961, SEQ ID NO 3678, 46L_47Y_49E_50I_52G_53F_54C_55C_67L_): 3.282 | B03_logFC (Degron-ID 7963, SEQ ID NO 4327, 46L_47Y_49E_50I_52G_53F_54E_55C_67L_): 2.158 | B03_logFC (Degron-ID 7965, SEQ ID NO 4331, 46L_47Y_49E_50I_52G_53F_54G_55C_67L_): 2.155 | B03_logFC (Degron-ID 7967, SEQ ID NO 3685, 46L_47Y_49E_50I_52G_53F_54I_55C_67L_): 3.256 | B03_logFC (Degron-ID 7968, SEQ ID NO 3728, 46L_47Y_49E_50I_52G_53F_54K_55C_67L_): 3.157 | B03_logFC (Degron-ID 7970, SEQ ID NO 3682, 46L_47Y_49E_50I_52G_53F_54M_55C_67L_): 3.269 | B03_logFC (Degron-ID 7977, SEQ ID NO 3671, 46L_47Y_49E_50I_52G_53F_54V_55C_67L_): 3.292 | B03_logFC (degron 1020 (SEQ ID NO 3523) 46F_47F_49E_50I_52G_53A_54A_55F_67L): 3.645 | B03_logFC (degron 1021 (SEQ ID NO 3469) 46F_47F_49E_50I_52G_53A_54C_55F_67L): 3.835 | B03_logFC (degron 1027 (SEQ ID NO 3539) 46F_47F_49E_50I_52G_53A_54I_55F_67L): 3.607 | B03_logFC (degron 1028 (SEQ ID NO 3519) 46F_47F_49E_50I_52G_53A_54K_55F_67L): 3.654 | B03_logFC (degron 1031 (SEQ ID NO 3529) 46F_47F_49E_50I_52G_53A_54N_55F_67L): 3.628 | B03_logFC (degron 1033 (SEQ ID NO 3511) 46F_47F_49E_50I_52G_53A_54Q_55F_67L): 3.67 | B03_logFC (degron 1034 (SEQ ID NO 3515) 46F_47F_49E_50I_52G_53A_54R_55F_67L): 3.661 | B03_logFC (degron 1035 (SEQ ID NO 3492) 46F_47F_49E_50I_52G_53A_54S_55F_67L): 3.722 | B03_logFC (degron 1036 (SEQ ID NO 3474) 46F_47F_49E_50I_52G_53A_54T_55F_67L): 3.804 | B03_logFC (degron 1037 (SEQ ID NO 3486) 46F_47F_49E_50I_52G_53A_54V_55F_67L): 3.757 | B03_logFC (degron 1060 (SEQ ID NO 3635) 46F_47F_49E_50V_52G_53A_54A_55F_67L): 3.389 | B03_logFC (degron 1061 (SEQ ID NO 3578) 46F_47F_49E_50V_52G_53A_54C_55F_67L): 3.514 | B03_logFC (degron 1068 (SEQ ID NO 3628) 46F_47F_49E_50V_52G_53A_54K_55F_67L): 3.418 | B03_logFC (degron 1071 (SEQ ID NO 3613) 46F_47F_49E_50V_52G_53A_54N_55F_67L): 3.445
